This note sets out measurements from article PMC9508095.

Sequences of proteins named here, by UniProt entry; tags and fusion partners are left off.
UniProt Q7Z434: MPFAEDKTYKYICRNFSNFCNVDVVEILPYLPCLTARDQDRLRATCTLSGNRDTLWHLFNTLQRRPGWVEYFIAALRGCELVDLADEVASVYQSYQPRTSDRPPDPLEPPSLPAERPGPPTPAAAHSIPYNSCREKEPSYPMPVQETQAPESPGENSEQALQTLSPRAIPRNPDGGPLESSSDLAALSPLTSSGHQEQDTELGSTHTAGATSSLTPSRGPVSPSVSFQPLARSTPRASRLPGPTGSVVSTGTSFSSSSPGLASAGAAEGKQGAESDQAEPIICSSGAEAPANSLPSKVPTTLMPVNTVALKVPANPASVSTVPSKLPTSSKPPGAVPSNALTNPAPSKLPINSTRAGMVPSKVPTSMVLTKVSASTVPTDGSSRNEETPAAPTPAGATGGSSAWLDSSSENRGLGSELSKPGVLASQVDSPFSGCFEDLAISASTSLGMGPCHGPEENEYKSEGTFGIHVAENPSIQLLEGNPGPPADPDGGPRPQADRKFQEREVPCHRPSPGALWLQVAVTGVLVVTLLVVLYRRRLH
UniProt P15682: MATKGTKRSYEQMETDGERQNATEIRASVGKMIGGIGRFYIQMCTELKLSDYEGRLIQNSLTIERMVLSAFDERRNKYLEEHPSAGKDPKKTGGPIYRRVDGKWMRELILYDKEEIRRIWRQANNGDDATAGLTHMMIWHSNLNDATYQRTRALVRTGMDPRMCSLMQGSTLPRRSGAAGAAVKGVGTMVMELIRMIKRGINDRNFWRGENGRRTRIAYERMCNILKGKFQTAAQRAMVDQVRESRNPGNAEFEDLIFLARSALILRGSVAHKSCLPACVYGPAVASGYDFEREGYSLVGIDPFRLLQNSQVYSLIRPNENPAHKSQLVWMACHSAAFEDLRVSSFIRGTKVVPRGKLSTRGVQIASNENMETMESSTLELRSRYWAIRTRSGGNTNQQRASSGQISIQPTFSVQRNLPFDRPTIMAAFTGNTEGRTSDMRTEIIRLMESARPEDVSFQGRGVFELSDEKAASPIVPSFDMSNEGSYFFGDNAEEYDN

Test [1] addresses Flag-tagged IMP α7 (human) (UniProt O60684). The test can be described thus: co-IP.
The target of a further test is Myc-tagged MAVS (human) (UniProt Q7Z434). The test can be described thus: co-IP; HEK293T co-transfected with the indicated plasmids, lysed 36 h p.t. in IP lysis buffer (Pierce), primary antibody then Protein G-Agarose at 4 °C, western blot; in some panels a third protein (BinCARD1 or TRAF3) was coexpressed.

No constants are given. Whether binding was seen depends on the method and setting. Binding seen in cells or lysates may run through a third protein. Some binding calls cover weakened binding; strength is not graded here. For some assays here: Sequences can lack the tags named with a protein.

For the molecule WSNNP (from UniProt P15682 1-498), in test [1], the binding entry was “binds”.

B1: Flag-tagged IKKε (protein, UniProt Q14164 1-716)
chain: MQSTANYLWHTDDLLGQGATASVYKARNKKSGELVAVKVFNTTSYLRPREVQVREFEVLRKLNHQNIVKLFAVEETGGSRQKVLVMEYCSSGSLLSVLESPENAFGLPEDEFLVVLRCVVAGMNHLRENGIVHRDIKPGNIMRLVGEEGQSIYKLTDFGAARELDDDEKFVSVYGTEEYLHPDMYERAVLRKPQQKAFGVTVDLWSIGVTLYHAATGSLPFIPFGGPRRNKEIMYRITTEKPAGAIAGAQRRENGPLEWSYTLPITCQLSLGLQSQLVPILANILEVEQAKCWGFDQFFAETSDILQRVVVHVFSLSQAVLHHIYIHAHNTIAIFQEAVHKQTSVAPRHQEYLFEGHLCVLEPSVSAQHIAHTTASSPLTLFSTAIPKGLAFRDPALDVPKFVPKVDLQADYNTAKGVLGAGYQALRLARALLDGQELMFRGLHWVMEVLQATCRRTLEVARTSLLYLSSSLGTERFSSVAGTPEIQELKAAAELRSRLRTLAEVLSRCSQNITETQESLSSLNRELVKSRDQVHEDRSIQQIQCCLDKMNFIYKQFKKSRMRPGLGYNEEQIHKLDKVNFSHLAKRLLQVFQEECVQKYQASLVTHGKRMRVVHETRNHLRLVGCSVAACNTEAQGVQESLSKLLEELSHQLLQDRAKGAQASPPPIAPYPSPTRKDLLLHMQELCEGMKLLASDLLDNNRIIERLNRVPAPPDV
As to B1, in the test with Myc-tagged MAVS (human), the binding entry is reported as “binds”.
